## Library screening results

Chains of the proteins cited; added tags and fusions are not shown.
UniProt E9BF75, entry or part of it: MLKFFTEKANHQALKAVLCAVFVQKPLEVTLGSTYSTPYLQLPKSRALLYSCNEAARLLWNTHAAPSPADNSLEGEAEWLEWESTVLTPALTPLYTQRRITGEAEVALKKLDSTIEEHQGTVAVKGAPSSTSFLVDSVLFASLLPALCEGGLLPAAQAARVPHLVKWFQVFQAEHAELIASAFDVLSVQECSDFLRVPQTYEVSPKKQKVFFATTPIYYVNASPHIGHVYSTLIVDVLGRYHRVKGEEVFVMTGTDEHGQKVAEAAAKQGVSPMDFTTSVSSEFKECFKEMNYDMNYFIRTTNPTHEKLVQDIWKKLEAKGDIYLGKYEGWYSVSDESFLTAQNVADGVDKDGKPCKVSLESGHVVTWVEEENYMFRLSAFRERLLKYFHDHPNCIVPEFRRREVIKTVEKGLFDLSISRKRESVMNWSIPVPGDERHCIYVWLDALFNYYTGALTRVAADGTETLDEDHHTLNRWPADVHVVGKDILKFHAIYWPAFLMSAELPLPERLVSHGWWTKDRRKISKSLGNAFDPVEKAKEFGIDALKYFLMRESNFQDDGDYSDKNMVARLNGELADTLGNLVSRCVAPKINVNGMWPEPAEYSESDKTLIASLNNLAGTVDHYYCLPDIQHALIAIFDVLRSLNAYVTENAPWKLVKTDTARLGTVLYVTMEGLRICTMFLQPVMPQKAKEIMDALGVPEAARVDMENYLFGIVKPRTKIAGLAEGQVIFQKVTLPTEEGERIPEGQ

Source: ChEMBL document CHEMBL3988442, “University of Dundee, Small-Polar-MMV Screening Library” (2021).

LdMetRS: 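Methionyl-tRNA synthetase (putative), Leishmania donovani (UniProt E9BF75). Primary screen of methionyl-tRNA synthetase; the read-out is not stated. The test concentration is not given. Values are per cent inhibition. Of about 68,000 compounds tested this way, about 24 (0.035%) reached 50% or more in at least one test.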
Mtb heat-shock: 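Assay on Mycobacterium tuberculosis, filed only as a heat shock assay from Cornell; the read-out is not stated. The concentration is filed as 10 mM, unlikely as a test dose, so the dose is not known. Higher reads as stronger inhibition (inferred: compounds with an IC50 in retests scored well above the rest). About 69,000 compounds were tested under these conditions; 1.4% (about 930) showed 50% or more at least once.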

All values are in %.
The controls that fix the scale are not given in the record; negative values are as filed.
Compounds were drawn at random from those tested, without regard to their results.

{"smiles": "CC(C)[C@@H]1CN(C(=O)C2(c3ccccc3)CC2)C[C@H]1C(=O)O", "LdMetRS": 10.03, "Mtb heat-shock": 15.35}
{"smiles": "COc1ccc(-c2ccccc2CN)c(OC)c1", "LdMetRS": 9.966, "Mtb heat-shock": -10.06}
{"smiles": "CCC(CNC1CCN(C(C)=O)CC1)Oc1cccc(C)c1", "stereo": "stereo unspecified", "LdMetRS": 8.741, "Mtb heat-shock": -3.549}
{"smiles": "COc1c(CNC2CCOc3c(F)cccc32)c(C)nn1C", "stereo": "stereo unspecified", "LdMetRS": 16.85, "Mtb heat-shock": -24.74}
{"smiles": "Cc1sc(C(=O)NS(C)(=O)=O)cc1-c1ccc(F)cc1", "LdMetRS": 15.92, "Mtb heat-shock": 15.29}
{"smiles": "COc1cc(CNc2cnn(C)c2)cc2c1OCCO2", "LdMetRS": 5.102, "Mtb heat-shock": 16.79}
{"smiles": "CN(Cc1cccc(OC(F)(F)F)c1)Cc1cnn(C)c1", "LdMetRS": 6.425, "Mtb heat-shock": -22.56}
{"smiles": "CCc1nnc(C2Cc3ccccc3CN2Cc2ncc(Cl)n2C)o1", "stereo": "stereo unspecified", "LdMetRS": -1.292, "Mtb heat-shock": -7.61}
{"smiles": "[H][C@@]12CS(=O)(=O)C[C@]1([H])N(Cc1nc(C)n[nH]1)CCN2Cc1ccccc1", "Mtb heat-shock": 16.9}
{"smiles": "CC(C)c1nnc2n1CC(CNCc1ccncc1)CC2", "stereo": "stereo unspecified", "LdMetRS": 6.195, "Mtb heat-shock": 107}
{"smiles": "O=C(O)C(F)(F)F.O=C(O)C(F)(F)F.[H][C@@]12CN(C(=O)c3ccco3)C[C@]1([H])OCCN2CCN1CCCC1", "Mtb heat-shock": -4.474}
{"smiles": "CCc1cnc(CN(C)C2CCN(CCc3cccs3)C2)o1", "stereo": "stereo unspecified", "LdMetRS": 8.661, "Mtb heat-shock": -5.267}
{"smiles": "CSc1ccc(CNC2CCCc3c2cnn3C)cc1.Cl", "stereo": "stereo unspecified", "Mtb heat-shock": 1.687}
{"smiles": "CCn1ncnc1CN1CCOC(Cc2cccc3ccccc23)C1", "stereo": "stereo unspecified", "LdMetRS": 14.29, "Mtb heat-shock": -16.4}
{"smiles": "[H][C@@]12CCN(Cc3ccco3)C[C@@]1([H])O[C@H](c1ccnc(C)n1)C2", "Mtb heat-shock": 15.75}
{"smiles": "COCCN1CCC2(COCc3cnc(N4CCOCC4)nc32)C1", "stereo": "stereo unspecified", "LdMetRS": 1.742}
{"smiles": "CC(NC(=O)NCCCn1cncn1)c1ccncc1", "stereo": "stereo unspecified", "LdMetRS": 15.56, "Mtb heat-shock": -18.44}
{"smiles": "Cc1ccc(S(=O)(=O)Nc2ccc(=O)n(C)c2)cc1", "LdMetRS": 1.408, "Mtb heat-shock": 17.89}
{"smiles": "CN(C)C(=O)C1(C)CN(Cc2cn(C)c3ccccc23)CCO1", "stereo": "stereo unspecified", "LdMetRS": 13.12, "Mtb heat-shock": 54.51}
{"smiles": "CC(Cn1cccn1)NCCCc1nc(-c2cccs2)no1", "stereo": "stereo unspecified", "LdMetRS": 2.857, "Mtb heat-shock": -4.622}
{"smiles": "O=C(O)c1cnc(N2CC[C@H](N3CCOCC3)[C@H](CCCO)C2)c(Cl)c1", "LdMetRS": 12.66, "Mtb heat-shock": -28.47}
{"smiles": "CC1c2ncc(CN3CCN(C)CC3)n2CCN1Cc1ccccn1.O=C(O)C(F)(F)F.O=C(O)C(F)(F)F.O=C(O)C(F)(F)F.O=C(O)C(F)(F)F", "stereo": "stereo unspecified", "Mtb heat-shock": -11.9}
{"smiles": "CC(=O)N(Cc1ncc(C(C)C)o1)C1CCN(Cc2ccno2)C1", "stereo": "stereo unspecified", "LdMetRS": 10.48, "Mtb heat-shock": 4.417}
{"smiles": "O=C(O)C(F)(F)F.[H][C@@]12CCN(Cc3nccs3)[C@]1([H])C[C@@H](C(=O)NCC1CCOCC1)O2", "Mtb heat-shock": -5.784}
{"smiles": "Cc1cncc(C(=O)N2CCC(Cn3cc(-c4ccsc4)nn3)CC2)c1", "LdMetRS": 14.86, "Mtb heat-shock": 0.9218}
{"smiles": "CCOc1ccc(C(=O)CCC(=O)NCc2cncn2CC)cc1C", "LdMetRS": 4.969, "Mtb heat-shock": -5.814}
{"smiles": "O=C(c1ccncn1)N1C[C@H]2CCC[C@@]2(COCC2CCOCC2)C1", "LdMetRS": 9.333}
{"smiles": "COc1ccc(C2=CCN(C(=O)C3CCC3)CC2)cc1", "LdMetRS": 13.13, "Mtb heat-shock": 20.57}
{"smiles": "CS(=O)(=O)N1CCOC2(CCN(c3ncccn3)CC2)c2ccccc21", "LdMetRS": 16.26, "Mtb heat-shock": -11.19}

Repeated from the top, 2 entries:

* CC(C)[C@@H]1CN(C(=O)C2(c3ccccc3)CC2)C[C@H]1C(=O)O | LdMetRS: 10.03%; Mtb heat-shock: 15.35%
* COc1ccc(-c2ccccc2CN)c(OC)c1 | LdMetRS: 9.966%; Mtb heat-shock: -10.06%